Reference: US8426364B2, “Method of preventing progression of hypertension-induced heart failure with PKC peptides” (The Board of Trustees of the Leland Stanford Junior …, priority 0011, dated 2013)
For some assays here: Part of at least one peptide drawing is inferred or uncertain, most often the ends. For at least one compound, name, drawing or mass did not settle the structure.

Key:
εPKC = biological target: T1, εPKC (Rattus norvegicus, UniProt P09216); assay: Western blot of εPKC expression and translocation in LV tissue; format: in vivo; conditions: 17-week-old hypertensive rats, vs HS-control
T1 construct: Whole tissue lysates were obtained by homogenization of LV myocardium; from tissue; host or cells: left ventricle myocardium of Dahl salt-sensitive rats
T1 sequence (P09216 1-737): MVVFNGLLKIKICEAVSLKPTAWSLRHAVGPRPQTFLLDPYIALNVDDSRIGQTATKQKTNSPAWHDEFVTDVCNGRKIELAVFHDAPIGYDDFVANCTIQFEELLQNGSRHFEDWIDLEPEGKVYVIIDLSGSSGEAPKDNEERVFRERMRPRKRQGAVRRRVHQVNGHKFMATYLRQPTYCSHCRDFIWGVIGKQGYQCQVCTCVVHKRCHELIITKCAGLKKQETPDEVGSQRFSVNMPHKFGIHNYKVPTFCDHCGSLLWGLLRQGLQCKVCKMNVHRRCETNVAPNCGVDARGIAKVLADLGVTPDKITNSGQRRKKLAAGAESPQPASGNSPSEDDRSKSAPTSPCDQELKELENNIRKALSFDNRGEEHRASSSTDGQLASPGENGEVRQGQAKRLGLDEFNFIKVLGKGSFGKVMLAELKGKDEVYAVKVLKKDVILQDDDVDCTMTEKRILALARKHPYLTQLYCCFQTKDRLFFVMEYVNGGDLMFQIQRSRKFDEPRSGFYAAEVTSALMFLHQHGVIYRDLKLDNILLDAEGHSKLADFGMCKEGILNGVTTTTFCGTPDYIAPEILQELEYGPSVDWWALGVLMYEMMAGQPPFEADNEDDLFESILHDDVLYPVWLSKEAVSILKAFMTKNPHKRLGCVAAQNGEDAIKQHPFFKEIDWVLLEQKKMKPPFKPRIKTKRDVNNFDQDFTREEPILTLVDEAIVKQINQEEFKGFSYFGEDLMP

Dahl salt-sensitive rats = assay: Hypertension-induced heart failure rat model (survival, echocardiography, blood pressure, body weight); format: in vivo
Description: To determine whether εPKC plays any role in the transition to heart failure and death, HS rats were treated with the selective εPKC inhibiting peptide, TAT47-57-εV1-2 (εV1-2; 2.8 μg/kg/day using a subcutaneous Alzet pump (26)) or with saline as a control (HS-control) from the age of 11 weeks (when compensatory hypertrophy is seen) to 17 weeks (when heart failure is apparent; FIG. 1A)). Another group of hypertensive rats was treated for the same period with a common clinical treatment, the angiotensin II receptor type 1 blocker (ARB, olmesartan, Olm; 3 mg/kg/day).
Animal protocols were approved by the Stanford University Institutional Animal Care and Use Committee. Dahl salt-sensitive rats provide a reliable animal model of hypertension-induced heart failure. When placed on 8% NaCl-containing diet from the age of 6 weeks (HS rats), the rats develop compensative left ventricular hypertrophy by the age of 11 weeks, and die from heart failure when they reach 16 to 21 weeks (21, 25). Male Dahl salt-sensitive rats were fed with an 8% NaCl-containing diet (Dahl-high-salt) or with a 0.3% NaCl low salt diet (LS-control; n=25) from the age of 6 weeks onward as previously reported (3, 21). Dahl-high-salt rats were treated between the ages of 11 and 17 weeks with the selective εPKC inhibiting peptide, TAT47-57-εV1-2 (εV1-2; n=10, 2.8 μg/kg/day), with TAT47-57-εV1-1 (εV1-1; n=14, 2.8 μg/kg/day), or with saline as a control (HS-Control; n=12), using osmotic pumps implanted subcutaneously. A fourth group was treated with angiotensin II receptor type 1 blocker, olmesartan (ARB; n=12, 3 mg/kg/day in 0.5% carboxymethylcellulose) delivered by daily gavage for the same period. A fifth group was treated from 15 to 17 weeks of age with the selective εPKC activating peptide, TAT47-57-ΨεRACK (ΨεRACK; n=17, 2.8 μg/kg/day) using an osmotic pump implanted subcutaneously (FIG. 1).
The osmotic pumps were replaced every two weeks, but were discontinued after the age of 17 weeks because half of the HS-control rats died by that age. Additional groups were treated with εV1-2 (using the Alzet pump) together with ARB (n=12) or with ARB alone (n=13) from 11 to 19 weeks of age (FIG. 6). Survival rate, fractional shortening and blood pressure were evaluated in these groups. Systolic blood pressure was measured by the tail-cuff method (BP-2000 Blood Pressure Analysis System, Visitech Systems, Inc), and fractional shortening was measured by transthoracic echocardiography (Vivid 7, GE). Additional control Dahl-high-salt rats were treated with TAT47-57 carrier peptide between 11 to 17 weeks or between 15 to 17 weeks, with vehicle for ARB (0.5% carboxymethylcellulose) or were left untreated and evaluated for survival rate, cardiac function and blood pressure.

δPKC = assay: Western blot of δPKC expression and translocation in LV tissue; format: in vivo, rat; conditions: 17-week-old hypertensive rats, vs HS-control
troponin T = assay: Serum troponin T in 17-week-old rats; format: in vivo, rat
[1] = 17 weeks of age, high-salt rats, εV1-2 and Olm treated 11 to 17 weeks, ΨεR 15 to 17 weeks, mean ± SEM

Compound	levels of εPKC in the particulate fraction (translocation) (εPKC)	total levels (expression) of εPKC (εPKC)	EDD (LV end-diastolic diameter) (Dahl salt-sensitive rats; [1]) [mm]	ESD (LV end-systolic diameter) (Dahl salt-sensitive rats; [1]) [mm]	FS (LV fractional shortening) (Dahl salt-sensitive rats; [1]) [%]	PWT (LV posterior wall thickness) (Dahl salt-sensitive rats; [1]) [mm]	levels of δPKC in the particulate fraction (translocation) (δPKC)	total levels (expression) of δPKC (δPKC)	lung weight/BW (Dahl salt-sensitive rats; at 17 weeks old)	fractional shortening / cardiac function (Dahl salt-sensitive rats; at 17 weeks, in words)	systolic blood pressure (Dahl salt-sensitive rats; high-salt rats, olmesartan dose 3 mg)	serum troponin T (troponin T)
CC[C@H](C)[C@H](NC(=O)[C@@H]1CCCN1C(=O)[C@H](C)NC(=O)[C@H](CC(=O)O)NC(=O)[C@H](Cc1c[nH]cn1)NC(=O)[C@@H](N)CSSC[C@H](N)C(=O)N[C@@H](Cc1ccc(O)cc1)C(=O)NCC(=O)N[C@@H](CCCNC(=N)N)C(=O)N[C@@H](CCCCN)C(=O)N[C@@H](CCCCN)C(=O)N[C@@H](CCCNC(=N)N)C(=O)N[C@@H](CCCNC(=N)N)C(=O)N[C@@H](CCC(N)=O)C(=O)N[C@@H](CCCNC(=N)N)C(=O)N[C@@H](CCCNC(=N)N)C(=O)N[C@@H](CCCNC(=N)N)C(=O)O)C(=O)NCC(=O)N[C@@H](Cc1ccc(O)cc1)C(=O)N[C@@H](CC(=O)O)C(=O)O [ΨεR]	increased	Neither treatment significantly affected	8.2 ± 0.3	4.9 ± 0.5	41.1 ± 3.5	1.6 ± 0.06						
CCCc1nc(C(C)(C)O)c(C(=O)O)n1Cc1ccc(-c2ccccc2-c2nnn[nH]2)cc1 [Olm, olmesartan]	did not affect	did not affect					did not affect	did not affect	prevented the increase	maintained normal fractional shortening	does not affect systolic blood pressure	not detected
